# pIC50: −log10 of the molar value. Structures were worked out from names or drawings and are uncertain.
# Sequences of proteins named here, by UniProt entry; tags and fusion partners are left off.
# UniProt O95372, whole entry: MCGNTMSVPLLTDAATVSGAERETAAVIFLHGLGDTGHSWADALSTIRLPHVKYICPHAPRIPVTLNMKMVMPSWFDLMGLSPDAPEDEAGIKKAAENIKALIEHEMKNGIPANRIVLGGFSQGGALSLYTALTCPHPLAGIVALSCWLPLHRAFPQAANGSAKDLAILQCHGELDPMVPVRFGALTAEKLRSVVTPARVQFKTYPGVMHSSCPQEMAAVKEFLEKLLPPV
# UniProt O75608, whole entry: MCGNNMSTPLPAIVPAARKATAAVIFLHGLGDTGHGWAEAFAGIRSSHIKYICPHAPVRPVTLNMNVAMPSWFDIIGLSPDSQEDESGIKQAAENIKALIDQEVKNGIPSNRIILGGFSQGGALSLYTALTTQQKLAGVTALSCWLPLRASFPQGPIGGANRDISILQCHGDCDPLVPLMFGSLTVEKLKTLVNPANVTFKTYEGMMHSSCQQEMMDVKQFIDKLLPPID
# How the values were obtained:
# APT2 = APT2 (Homo sapiens, UniProt O95372); assay: APT2 enzymatic assay, resorufin acetate as fluorogenic substrate; type: biochemical; details: read-out: IC50 APT2; Table 3, class symbols
# APT1 = APT1 (Homo sapiens, UniProt O75608); assay: APT1 enzymatic assay, resorufin acetate as fluorogenic substrate; type: biochemical; details: read-out: IC50 APT1; Table 3, class symbols
compound,measurement,setting,value
CN(C)c1ccc(N2CCN(C(=O)c3cc4c(s3)-c3ccccc3S(=O)(=O)C4)CC2)cc1,pIC50,APT2,4.40 to 6.00
same,pIC50,APT1,< 4.40

# From patent publication US20250092067A1, “APT1 and APT2 Inhibitors and Uses Thereof” (Cornell University, priority 2021, published 2025)
